Record: PubChem BioAssay AID504804 (Drosophila RNAi Screening Center, 2011)
Aim: 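Fly genes whose loss lessens doxorubicin-driven cell death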 (primary screen). Cells: Drosophila Kc cells. Knock-down reagent: long dsRNA against Drosophila genes, 0.5 µg dsRNA per well. Time to read-out: 96 h (48 h knock-down, then 48 h drug). Treatment: doxorubicin 5 µg/ml for 48 h, added 48 h after dsRNA. Read-out: 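Viability measured as cellular ATP by luminescence after 48 h knock-down then 48 h doxorubicin at 5 µg/ml; unnormalised plate counts for each replicate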. Scale: raw ATP luminescence: higher = more viable cells, protection from doxorubicin. Active means: 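Active when both duplicate wells lie at least 2 SD above the plate mean and protection is confirmed by rescreening and independent dsRNAs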.
The screen tested about 19,000 reagents; below is a random part of those with a known target gene and a result. Of all reagents, 47 (0.25%) are marked active. 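Signals are raw, not normalised; exact z-scores behind calls not deposited; actives needed confirmation, so some wells reaching 2 SD are inactive.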 A number with no mark means an inactive call. Names joined by + are all predicted targets of the reagent.

gene knocked down	dsRNA	SD above plate mean	raw ATP luminescence, replicate 1	raw ATP luminescence, replicate 2
fh (GeneID 31845)	DRSC18430		2.97e5	2.86e5
CG13634 (GeneID 42951)	DRSC14635		57670	61100
CG18258 (GeneID 32708)	DRSC19798		2.07e5	2.51e5
VAChT (GeneID 42795)	DRSC13311		3.10e5	2.66e5
VAChT (GeneID 42795)	DRSC16608		47697	46970
VhaAC45 (GeneID 35944)	DRSC07058	at least 2 SD above plate mean (active)	95030	86277
mRpL11 (GeneID 41757)	DRSC15482		70050	67900
CG32119 (GeneID 317866)	DRSC09248		1.22e5	1.08e5
MICAL-like (GeneID 39475)	DRSC09829		39370	38463
Ankle2 (GeneID 32732)	DRSC20106		3.03e5	3.32e5
CG32214 (GeneID 317919)	DRSC09613		77547	61680
CG13314 (GeneID 39030)	DRSC09985		67007	82353
CG34334 (GeneID 5740122)	DRSC20643		3.50e5	4.03e5
CG32246 (GeneID 317936)	DRSC08115		1.04e5	1.08e5
CG33796 (GeneID 3771914)	DRSC09417		1.09e5	83177
TwdlE (GeneID 34075)	DRSC02392		45953	72677
CG10841 (GeneID 41665)	DRSC14271		49210	34820
CG10588 (GeneID 40316)	DRSC11628		63460	67343
CG17717 (GeneID 31592)	DRSC18130		28950	38910
Dim1 (GeneID 33645)	DRSC00563		22773	21083
CG13984 (GeneID 33879)	DRSC02316		26263	27833
CG31515 (GeneID 326147)	DRSC13610		2.56e5	2.31e5
CG12620 (GeneID 35034)	DRSC02177		66270	68490
Obp19d (GeneID 33040)	DRSC20569		3.56e5	4.63e5
ecd (GeneID 38291)	DRSC08574		57453	49600
CG15865 (GeneID 32641)	DRSC19733		4.07e5	3.21e5
gskt (GeneID 318552)	DRSC14056		2.43e5	2.66e5
CG15728 (GeneID 32214)	DRSC19694		3.26e5	3.18e5
Polr2E (GeneID 36160)	DRSC06100		35307	52573
Eps-15 (GeneID 37961)	DRSC04288		73057	36673
CG1075 (retired record) (GeneID 40742)	DRSC12144		59287	65433
RtGEF (GeneID 35306)	DRSC03604		67437	76663
Syn (GeneID 41247)	DRSC16876		54960	43587
Uba1 (GeneID 35998)	DRSC07567		67780	59903
CG5757 (GeneID 37062)	DRSC06951		56927	42603
Task6 (GeneID 41671)	DRSC16530		82140	79660
Nup44A (GeneID 35762)	DRSC07248		60450	45753
cwo (GeneID 44669)	DRSC17072		59970	53840
Kdm5 (GeneID 33837)	DRSC03133		79123	73360
wuho (GeneID 31566)	DRSC18101		38380	46260
CG42286 (retired record) (GeneID 41002)	DRSC14357		50420	43013
CG8003 (GeneID 39210)	DRSC10946		34983	59903
CG5645 (GeneID 39382)	DRSC10532		43417	46093
CG30275 (GeneID 246522)	DRSC04163		43353	57373
Golgin97 (GeneID 36492)	DRSC06895		57017	65107
Pebp1 (GeneID 42644)	DRSC15354		47370	54130
CG32437 (GeneID 40366)	DRSC11760		61043	59303
moi + Tgs1	DRSC16371		61540	74720
CG17260 (GeneID 33519)	DRSC00497		1.08e5	78737
Osi17 (GeneID 40774)	DRSC12284		63203	69160
Rexo5 (GeneID 38740)	DRSC10981		76350	75733
Pfk (GeneID 36060)	DRSC07506		51093	44063
Prx6c (GeneID 36098)	DRSC06080		47987	91703
S6k (GeneID 38654)	DRSC11276		67427	86133
CG31249 (GeneID 42129)	DRSC16248		44790	33140
HIPP1 (GeneID 40302)	DRSC11748		20393	11917
Gbeta76C (GeneID 40148)	DRSC11174		28757	28220
Hmbs (GeneID 46140)	DRSC08632		77330	90897
CG8119 (GeneID 32500)	DRSC20083		3.19e5	2.96e5

In a second layout: results already given
Obp19d (GeneID 33040) [DRSC20569]
- raw ATP luminescence, replicate 1: 3.56e5
- raw ATP luminescence, replicate 2: 4.63e5

ecd (GeneID 38291) [DRSC08574]
- raw ATP luminescence, replicate 1: 57453
- raw ATP luminescence, replicate 2: 49600

CG15865 (GeneID 32641) [DRSC19733]
- raw ATP luminescence, replicate 1: 4.07e5
- raw ATP luminescence, replicate 2: 3.21e5

gskt (GeneID 318552) [DRSC14056]
- raw ATP luminescence, replicate 1: 2.43e5
- raw ATP luminescence, replicate 2: 2.66e5

CG15728 (GeneID 32214) [DRSC19694]
- raw ATP luminescence, replicate 1: 3.26e5
- raw ATP luminescence, replicate 2: 3.18e5

Polr2E (GeneID 36160) [DRSC06100]
- raw ATP luminescence, replicate 1: 35307
- raw ATP luminescence, replicate 2: 52573

Eps-15 (GeneID 37961) [DRSC04288]
- raw ATP luminescence, replicate 1: 73057
- raw ATP luminescence, replicate 2: 36673

CG1075 (retired record) (GeneID 40742) [DRSC12144]
- raw ATP luminescence, replicate 1: 59287
- raw ATP luminescence, replicate 2: 65433

RtGEF (GeneID 35306) [DRSC03604]
- raw ATP luminescence, replicate 1: 67437
- raw ATP luminescence, replicate 2: 76663

Syn (GeneID 41247) [DRSC16876]
- raw ATP luminescence, replicate 1: 54960
- raw ATP luminescence, replicate 2: 43587

Uba1 (GeneID 35998) [DRSC07567]
- raw ATP luminescence, replicate 1: 67780
- raw ATP luminescence, replicate 2: 59903

CG5757 (GeneID 37062) [DRSC06951]
- raw ATP luminescence, replicate 1: 56927
- raw ATP luminescence, replicate 2: 42603

The listing continues:
gene knocked down	dsRNA	SD above plate mean	raw ATP luminescence, replicate 1	raw ATP luminescence, replicate 2
Mur2B (GeneID 31111)	DRSC18545		59830	49910
Mur2B (GeneID 31111)	DRSC18546		55070	54480
CG18480 (GeneID 34920)	DRSC01957		70177	74720
Task7 (GeneID 41125)	DRSC16477		54840	49267
RpL3 + CG6693	DRSC16097		51467	36267
CG4681 (GeneID 37928)	DRSC04481		49543	45577
peo (GeneID 47272)	DRSC05995		71533	62437
Rab9Fb (GeneID 32029)	DRSC19854		3.53e5	4.16e5
l(2)03659 (GeneID 47905)	DRSC07269		50227	80173
l(2)03659 (GeneID 47905)	DRSC07638		63293	80460
Incenp (GeneID 35649)	DRSC06116		78080	66960
Tsp42Ef (GeneID 35615)	DRSC06191		43047	85150
CG32106 (GeneID 317855)	DRSC09219		80720	79330
Suv3 (GeneID 40543)	DRSC12335		38883	34223
CG12725 (GeneID 32298)	DRSC19501		2.30e5	3.02e5
Edc3 (GeneID 39957)	DRSC10620	at least 2 SD above plate mean (active)	43603	42937
mRpS10 (GeneID 41838)	DRSC15557		72890	65870
Cfp1 (GeneID 31880)	DRSC18128		3.33e5	2.81e5
wat (GeneID 43420)	DRSC14854		69800	60700
CG32669 (GeneID 326229)	DRSC18864		2.30e5	2.39e5
cag (GeneID 36157)	DRSC07587		40853	79027
Cyp4ac1 (GeneID 33754)	DRSC03302		1.22e5	83647
CG15756 (GeneID 32308)	DRSC19721		3.54e5	3.64e5
FIG4 (GeneID 33658)	DRSC00515		1.08e5	57553
Rb97D (GeneID 43231)	DRSC16815		27380	29720
nito (GeneID 35756)	DRSC05943		57670	53230
Polr2G (GeneID 261631)	DRSC16068		33203	29317
CG14180 (retired record) (GeneID 39101)	DRSC10179		78260	65887
glec (GeneID 42571)	DRSC16958		80770	90970
CG9743 (GeneID 43593)	DRSC16552		31540	36900
spg (GeneID 43404)	DRSC14373		62410	56090
spg (GeneID 43404)	DRSC14881		59580	55860
CG13526 (GeneID 37613)	DRSC04168		60603	56167
CG33298 (GeneID 2768929)	DRSC02210		50763	71357
CG33298 (GeneID 2768929)	DRSC02672		88273	77050
CG13842 (GeneID 42685)	DRSC14692		64610	73070
mRpL38 (GeneID 32375)	DRSC19734		4.08e5	3.56e5
Cul6 (GeneID 39474)	DRSC09830		44860	43873
Trf2 (GeneID 31773)	DRSC18727		27570	31950
Men (GeneID 47173)	DRSC12924		2.43e5	2.74e5
Men (GeneID 47173)	DRSC16738		53130	49987
Snmp1 (GeneID 42514)	DRSC16168		28890	31670
CG12129 (GeneID 36044)	DRSC06105		69447	50923
Adf1 (GeneID 47082)	DRSC04941		85497	96427
Adf1 (GeneID 47082)	DRSC04963		58210	48260
CG30394 (GeneID 37437)	DRSC04074		54787	64137
CG30394 (GeneID 37437)	DRSC04260		48700	46247
Mst87F (GeneID 41693)	DRSC16747		79450	67490
